Results: US20250257332A1, “TRUNCATED AND FUSION PROTEINS” (Monash University, priority 2021, published 2025)
No constants are given. Whether binding was seen depends on the method and setting. Some results given as binding are weak or reduced against the parent protein; the word gives no strength.

By UniProt entry, the sequences of proteins in these tests, tags left out. Where a name states a change or a piece, a line headed by the entry shows the natural chain unless it says otherwise.
UniProt P51682: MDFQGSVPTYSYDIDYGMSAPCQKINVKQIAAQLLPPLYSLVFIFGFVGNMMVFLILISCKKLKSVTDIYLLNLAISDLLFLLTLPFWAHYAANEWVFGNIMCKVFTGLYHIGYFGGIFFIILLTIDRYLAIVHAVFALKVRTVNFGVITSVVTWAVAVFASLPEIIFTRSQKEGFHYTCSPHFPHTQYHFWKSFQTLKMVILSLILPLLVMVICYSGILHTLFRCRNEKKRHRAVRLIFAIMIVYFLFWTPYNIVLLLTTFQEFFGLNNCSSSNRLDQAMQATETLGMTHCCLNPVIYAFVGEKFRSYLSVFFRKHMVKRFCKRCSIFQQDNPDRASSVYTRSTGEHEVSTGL
UniProt P43490: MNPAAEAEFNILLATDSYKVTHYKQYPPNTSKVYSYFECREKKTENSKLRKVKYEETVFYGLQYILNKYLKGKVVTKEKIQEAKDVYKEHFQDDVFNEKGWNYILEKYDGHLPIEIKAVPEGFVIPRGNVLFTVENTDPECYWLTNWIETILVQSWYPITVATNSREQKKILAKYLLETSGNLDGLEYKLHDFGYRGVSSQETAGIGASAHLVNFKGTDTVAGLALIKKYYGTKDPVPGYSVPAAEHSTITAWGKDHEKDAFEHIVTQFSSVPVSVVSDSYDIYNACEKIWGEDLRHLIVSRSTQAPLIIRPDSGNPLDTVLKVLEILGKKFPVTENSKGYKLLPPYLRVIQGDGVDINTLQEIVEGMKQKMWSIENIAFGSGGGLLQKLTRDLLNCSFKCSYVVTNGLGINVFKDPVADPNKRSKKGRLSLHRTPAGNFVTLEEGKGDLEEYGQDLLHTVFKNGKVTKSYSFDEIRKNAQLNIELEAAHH

Key:
[1] = biological target: recombinant mouse CCR5 (MyBioSource) (mouse) (UniProt P51682); assay: competition ELISA (FIG. 2C legend)
[2] = biological target: CCR5 receptor on C2C12 mouse myoblasts (mouse) (UniProt P51682); assay: title of FIG. 2; rests on C2C12 proliferation with CCR5 antagonists and on the CCR5 competition ELISA

Question: For “human NAMPT cytokine finger (hNAMPTcif; NAMPT402-491) (from UniProt P43490 402-491) (ligand)”, which binding [1] is on record?
Answer: Its binding is “binds”.

Question: With “human recombinant NAMPT hrNAMPT (1) (Peprotech) (from UniProt P43490 27-491) (ligand)” as the substance, how does the binding [2] read?
Answer: The binding was “binds”.
